# The other results are listed elsewhere or left out.
# B1: il2ra_site1_1z92_normal_mot_0a69b5c9b02373fb877a90f2b4b0d8e1_0001_1_af2_000000257_0001_17_32_H_._5511cb2176c827d1feb3066af2f534d5_0001_af2_0001_0000300018_00000 … (protein)
# chain: PEELAEKARELLENGNPEEAEKVLEKLAREQGDEEAFKRDLEKAERFLGNPEKALYALIKALARD
# B2: il2ra_site2_2erj_normal_mot_HHH_b1_06608_000000059_0001_22_39_H_._HHH_b1_04589_0001_0000100001_0000001_0 (protein)
# chain: SSSSDEEEVRELIKQAEELLEEGDPEKASEVVARAAFLVIELGNVELARRLFELAREIFELSSSS
# B3: il2ra_site2_3nfp_normal_mot_HHH_b1_04787_000000220_0001_23_40_H_._HHH_b1_06980_af2_0001_0000300035_0000001_0 (protein)
# chain: SSSSDVEELLREIEELLERGDTHEALELLEEAHKLALERNDEELVRLVLELYELIVELYDSSSSS
# B4: il2ra_site1_2b5i_normal_mot_HHH_b2_04910_000000118_0001_1_19_H_._HHH_b1_06419_0001_0000300019_0000001_0_af2pred_0001_af2pred (protein)
# chain: SSSSSEEARKILELIEEADKLFKEGNEEEARELLERAKELAEERGSESLLRLVEAALRELSSSSS
# B5: il2ra_site2_3nfp_normal_mot_HHH_b2_01155_000000159_0001_38_52_H_._HHH_b2_02810_0001_0000200010_0000001_0 (protein)
# chain: SSSSDEEVEEEVERLLEEAKKIEDRREVLKLLARALELAWENRDSELFMLIAEVAFELHKSSSSS
# B6: il2ra_site1_2b5i_sap_10_mot_HHH_b2_00070_000000071_0001_43_56_H_._141e4e16e42c7d9bf1d4740829940245_0001_1_0001_0000600046_0000001_0_0001_af2pred_0001_af2pred_1 (protein)
# chain: SSSSDDELVKEVDKLYLQASRAFLRGNPEEARELVEEALELARENNDEEIVRQLEEMLKLLSSSS
# B7: il2ra_site2_3nfp_sap_19_mot_HHH_b1_06613_af2_000000098_0001_23_40_H_._72a79b14e1a0e827e78e129a6f5f8f0c_0001_1_0001_0000400032_0000001_0_0001_af2pred_0001_af2pre … (protein)
# chain: SSSSDEEELRREVEELLERAKETEDPEERRLLLLLALDLALRNKDEELEELVKKVKEELGSSSSS
# B8: il2ra_site2_3nfp_normal_mot_HHH_b2_01155_000000159_0001_38_52_H_._HHH_b2_02721_0001_0000400046_0000001_0 (protein)
# chain: SSSDEEEERVEKLLEEAKELLERGDPEEAQEVLREATHLAYKLGNSELFFLIAELAFKILQSSSS
# B9: il2ra_site2_2erj_sap_24_mot_4428453eb85d3cbdb794fa6b82d21c19_0001_000000044_0001_14_30_H_._7b66ed016c170d635ef469617b4fe817_0001_0001_0000200012_0000001_1_0001 (protein)
# chain: SSSSSYEELRELMKLAAEARALAYEGNPEEAREILEEALRLARELNSDNAREVLERLLEELSSSS
# B10: il2ra_site2_2erj_normal_mot_ems_3hC_1315_af2_000000245_0001_45_63_H_._HHH_b1_08295_0001_0000300032_0000001_0 (protein)
# chain: SSSDEEEEEELEEFVEELVRKYGLDEYVKAFLRRLVKYALENGASEEIIKEALELSVRQVKSSSS
# B11: il2ra_site1_3nfp_normal_mot_HHH_b2_00819_af2_000000158_0001_1_19_H_._HHH_b2_05746_0001_0000500011_0000001_0_af2pred_0001_af2pred (protein)
# chain: SSSSSSSEELLEEAEKRLEELLREGDYKEALKLAEEVLRLLAKLGNPELAKELAELALKLSSSSS
# B12: il2ra_site2_3nfp_normal_mot_HHH_b1_01086_000000225_0001_20_36_H_._HHH_b1_02572_0001_0000600045_0000001_1 (protein)
# chain: SSSSDVEERVQELIEEIEEISDPERRKELLREATNLVYQIPDEEEAFRLFAALADLAAELFSSSS
# B13: il2ra_site1_2b5i_normal_mot_f5ff40796168375b462bec8614a1db4a_0001_1_000000138_0001_53_65_H_._HHH_b2_05915_0001_0000600017_0000001_0_af2pred_dldesign_0_af2pred (protein)
# chain: SSSSSSESPREVAERLIAEAEKEKDKNLAYKILKMALKVARKGNDPELAAEIEEKLKKISSSSSS
# B14: il2ra_site2_3nfp_normal_mot_HHH_b1_06797_000000164_0001_24_40_H_._HHH_b2_07494_0001_0000200016_0000001_0 (protein)
# chain: SSSSKAEEYLEAVRILLRRALELGDEEAARTSVHAALLLAEALRDEETVKELEEILEELNSSSSS
# B15: il2ra_site2_2erj_normal_mot_HHH_b2_02154_af2_000000141_0001_43_57_H_._HHH_b1_05944_af2_0001_0000300035_0000001_0_af2pred_0001_1_af2pred_swapped (protein)
# chain: SSSSSELEEFIEELVEKFNLSEEAERELRLLARLLLERGVDEEEIKLTLELLARMHEDQLSSSSS
# B16: il2ra_site2_2erj_normal_mot_af86707857d369f3e1d85dcabc5f9321_0001_000000201_0001_14_29_H_._HHH_b2_03838_af2_0001_0000200004_0000001_1 (protein)
# chain: SSSSSSSEEEEAEELTEEAKKIEDPEEALRVLSEAFALAYRVGDHELAAEVIELTHRLNSSSSSS
# B17: il2ra_site1_2b5i_sap_24_mot_d0d27a57e4302dd0dd5ebafbde421892_0001_1_000000227_0001_37_51_H_._09e13f331d2c82047205c4dfe4f1b614_0001_1_af2_0001_0000200022_0000001 … (protein)
# chain: SSSSSSDIDKVLAEARELAAAGRRREALELLEELYKEAGAKDDEENQEKIEDLARELASSSSSSS
# B18: il2ra_site2_3nfp_normal_mot_HHH_b1_01289_000000235_0001_39_52_H_._HHH_b1_02970_af2_0001_0000100013_0000001_0 (protein)
# chain: SSSSDEEESELIELAYEALRLAAEGNPEEAREVLEEALEIAEENGDPLAERIREFIEAFGSSSSS
# Target: il2ra, P01589
# Assay: yeast display titration
row,Binder,apparent Kd
1,B1,inactive: no binding seen
2,B2,inactive: no binding seen
3,B3,inactive: no binding seen
4,B4,inactive: no binding seen
5,B5,inactive: no binding seen
6,B6,inactive: no binding seen
7,B7,inactive: no binding seen
8,B8,inactive: no binding seen
9,B9,inactive: no binding seen
10,B10,inactive: no binding seen
11,B11,inactive: no binding seen
12,B12,inactive: no binding seen
13,B13,inactive: no binding seen
14,B14,inactive: no binding seen
15,B15,inactive: no binding seen
16,B16,inactive: no binding seen
17,B17,inactive: no binding seen
18,B18,inactive: no binding seen

# Quoted at random: two records from the list, in no set order.
row,Binder,apparent Kd
7,B7,inactive: no binding seen
6,B6,inactive: no binding seen
